Common to all, as to assay type: cell-based
Experiment [1] concerns the target CDK9 (Homo sapiens, UniProt P50750). Description: CDK9 HIBIT PQ (protein quantification), degradation. The method, boiled down: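 In 384-well plates, HEK293 cells with HiBiT-tagged CDK9, grown in DMEM with 10% FBS, were seeded at 1.6×10^5 cells/well in 50 uL and kept overnight at 37° C and 5% CO2. After compound treatment, a HiBiT assay quantified CDK9 protein against a high control of 0.1% DMSO-treated cells and a low control of culture medium only. Maximal degradation, Dmax and DC50 were derived from the resulting signal.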

Chains of the proteins cited; added tags and fusions are not shown.
UniProt P50750, whole entry: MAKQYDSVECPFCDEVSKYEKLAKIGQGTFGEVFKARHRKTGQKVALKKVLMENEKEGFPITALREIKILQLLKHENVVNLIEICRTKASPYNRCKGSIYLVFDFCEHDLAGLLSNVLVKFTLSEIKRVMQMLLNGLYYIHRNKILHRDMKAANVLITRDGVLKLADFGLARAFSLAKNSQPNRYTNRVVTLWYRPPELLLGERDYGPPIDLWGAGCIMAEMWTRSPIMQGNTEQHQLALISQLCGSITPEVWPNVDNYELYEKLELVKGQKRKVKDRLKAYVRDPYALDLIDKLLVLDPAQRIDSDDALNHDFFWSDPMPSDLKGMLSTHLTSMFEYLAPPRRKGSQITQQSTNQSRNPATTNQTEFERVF
UniProt P24864, whole entry: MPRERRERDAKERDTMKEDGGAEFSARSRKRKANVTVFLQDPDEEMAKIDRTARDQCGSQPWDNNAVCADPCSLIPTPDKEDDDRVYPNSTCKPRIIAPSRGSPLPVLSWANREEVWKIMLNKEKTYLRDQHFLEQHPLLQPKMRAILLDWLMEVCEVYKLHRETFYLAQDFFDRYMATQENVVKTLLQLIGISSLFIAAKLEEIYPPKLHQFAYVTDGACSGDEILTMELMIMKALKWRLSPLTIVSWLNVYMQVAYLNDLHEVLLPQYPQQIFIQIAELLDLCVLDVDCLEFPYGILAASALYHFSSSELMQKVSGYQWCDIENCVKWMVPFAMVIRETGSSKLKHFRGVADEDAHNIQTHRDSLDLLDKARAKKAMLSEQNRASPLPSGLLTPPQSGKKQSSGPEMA

The target in experiment [2] is CDK2 (Homo sapiens, UniProt P24941). The experiment in a line: CDK2 HIBIT PQ (protein quantification), degradation. The settings on record: for CDK2 HIBIT PQ Max (%): Max = Maximum; for DC50: read-out: CDK2 HIBIT PQ DC50, PQ = Protein Quantification. The method, boiled down: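 HEK293 cells carrying HiBiT-tagged CDK2 were grown in DMEM with 10% FBS and seeded in 384-well plates at 1.6×10^5 cells/well in 50 uL, then incubated overnight at 37° C and 5% CO2. After 6 hours of compound treatment, 20 μL of HiBiT reagent (Nano-Glo HiBiT lytic buffer, lytic substrate, LgBiT protein) was added and plates were shaken for 20 minutes at room temperature before an EnVision reading. High control was 0.1% DMSO and low control was medium only. Maximal degradation and DC50 were derived from these readings.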

Experiment [3] addresses CCNE1 (Homo sapiens, UniProt P24864+P24941). Description: CCNE1 HIBIT PQ (protein quantification), degradation. To be noted: for CCNE1 HIBIT PQ Max (%): Max = Maximum; for DC50: read-out: CCNE1 HIBIT PQ DC50, PQ = Protein Quantification. The essentials: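 HEK293 cells carrying HiBiT-tagged CCNE1 were grown in EMEM with 10% FBS and seeded in 384-well plates at 1.6×10⁵ cells/well in 50 uL, then incubated overnight at 37° C and 5% CO₂. Compound treatment lasted 6 hours, and CCNE1 protein was then measured with a HiBiT assay. High control was 0.1% DMSO-treated cells and low control was culture medium only. Maximal degradation and DC50 were derived from these readings.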

The structures appear in SMILES notation. The structures given here were assigned with low confidence; some may be wrong.

As for `CC(C)Oc1c(-c2cn[nH]c2)ncn2nc(NC3CCN(S(=O)(=O)c4cccc(NC5CN(Cc6ccc7c(c6)CN(C6CCC(=O)NC6=O)C7=O)C5)c4)CC3)nc12` (stereo not shown), the “CDK9 HIBIT PQ Max (%)” value in experiment [1] (Max = Maximum) was 69%. Moreover, the DC50 in experiment [1] (read-out: CDK9 HIBIT PQ DC50, PQ = Protein Quantification) was found to be 9.15 nM. Also, in experiment [2], the “CDK2 HIBIT PQ Max (%)” value turned out to be 82% and the half-maximal degradation concentration (DC50) was determined as 0.8 nM. In experiment [3], the “CCNE1 HIBIT PQ Max (%)” value stood at 54% and the DC50 came out at 1.02 nM.

On to `CC(C)Oc1c(-c2cn[nH]c2)ncn2nc(Nc3ccc(S(=O)(=O)c4cccc(CN5CCN(c6ccc7c(N8CCC(=O)NC8=O)nn(C)c7c6)C(C(C)C)C5)c4)cc3F)nc12` (single isomer, unassigned) [108], for which, in experiment [2], the “CDK2 HIBIT PQ Max (%)” value was 92% and the half-maximal degradation concentration (DC50) was 10.4 nM. For the same compound, in experiment [3], the “CCNE1 HIBIT PQ Max (%)” value was found to be 77% and the DC50 is 79.8 nM.

Turning to `CC(C)Oc1c(-c2cn[nH]c2)ncn2nc(Nc3ccc(S(=O)(=O)c4cccc(CN5CCN(c6ccc7c(N8CCC(=O)NC8=O)nn(C)c7c6)C(C(C)C)C5)c4)cc3F)nc12` (single isomer, unassigned) [109], in experiment [2], the half-maximal degradation concentration (DC50) was 9.7 nM. In experiment [3], the “CCNE1 HIBIT PQ Max (%)” value is given as 78% and the DC50 was 71.7 nM.
